# Values from PubChem BioAssay AID1224830 (NIAID, 2016).
# Screen: 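Regulators of TLR4 signalling towards TNF-alpha in macrophage-like cells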 (primary screen)
# System: human THP-1 monocytic leukaemia cells, TNF dual-luciferase reporter clone, PMA-differentiated to macrophage-like cells
# Reagents: siRNA pool against human genes, 50 nM
# Timing: LPS for 4 h, given about 3 days after siRNA transfection
# Treatment: bacterial LPS (TLR4 ligand), 10 ng/ml
# Read-out: 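Ratio of firefly to renilla light, scaled to the plate median and expressed as a robust z-score per replicate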
# Scale: TNF reporter robust z-score: higher = stronger TNF reporter response to LPS
# Rule for the call: 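a well is active when its z-score exceeds 2.8 or falls below -1.5; control wells carry no call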
# This is a random part of about 18,000 reagents tested. About 2,900 of them (16%) were called active. 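Calls are made per well; low scores hint the gene aids the LPS response, high scores that it dampens it.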 Repeated entries: four replicate wells of each siRNA pool.
gene symbol,TNF reporter robust z-score,call
URB2 (URB2 ribosome biogenesis homolog),0.94,inactive
URB2 (URB2 ribosome biogenesis homolog),3.22,active
URB2 (URB2 ribosome biogenesis homolog),3.28,active
URB2 (URB2 ribosome biogenesis homolog),3.8,active
MAP3K4 (mitogen-activated protein kinase kinase kinase 4),1.04,inactive
MAP3K4 (mitogen-activated protein kinase kinase kinase 4),0.76,inactive
MAP3K4 (mitogen-activated protein kinase kinase kinase 4),-0.52,inactive
MAP3K4 (mitogen-activated protein kinase kinase kinase 4),1.01,inactive
PIP5KL1 (phosphatidylinositol-4-phosphate 5-kinase like 1),0.47,inactive
PIP5KL1 (phosphatidylinositol-4-phosphate 5-kinase like 1),0.14,inactive
PIP5KL1 (phosphatidylinositol-4-phosphate 5-kinase like 1),-0.58,inactive
PIP5KL1 (phosphatidylinositol-4-phosphate 5-kinase like 1),0.21,inactive
"ADH5 (alcohol dehydrogenase 5 (class III), chi polypeptide)",0.07,inactive
"ADH5 (alcohol dehydrogenase 5 (class III), chi polypeptide)",0.77,inactive
"ADH5 (alcohol dehydrogenase 5 (class III), chi polypeptide)",0.48,inactive
"ADH5 (alcohol dehydrogenase 5 (class III), chi polypeptide)",0.98,inactive
DUSP18 (dual specificity phosphatase 18),0.62,inactive
DUSP18 (dual specificity phosphatase 18),-0.09,inactive
DUSP18 (dual specificity phosphatase 18),-0.55,inactive
DUSP18 (dual specificity phosphatase 18),0.4,inactive
FCN3 (ficolin 3),0.95,inactive
FCN3 (ficolin 3),2.96,active
FCN3 (ficolin 3),0.11,inactive
FCN3 (ficolin 3),-0.15,inactive
BIRC8 (baculoviral IAP repeat containing 8),-1.76,active
BIRC8 (baculoviral IAP repeat containing 8),-2.07,active
BIRC8 (baculoviral IAP repeat containing 8),-1.93,active
BIRC8 (baculoviral IAP repeat containing 8),-0.39,inactive
ENPP2 (ectonucleotide pyrophosphatase/phosphodiesterase 2),-0.72,inactive
ENPP2 (ectonucleotide pyrophosphatase/phosphodiesterase 2),-0.32,inactive
ENPP2 (ectonucleotide pyrophosphatase/phosphodiesterase 2),0.25,inactive
ENPP2 (ectonucleotide pyrophosphatase/phosphodiesterase 2),0.74,inactive
TOM1 (target of myb1 membrane trafficking protein),2.38,inactive
TOM1 (target of myb1 membrane trafficking protein),0.47,inactive
TOM1 (target of myb1 membrane trafficking protein),1.9,inactive
TOM1 (target of myb1 membrane trafficking protein),1.05,inactive
IKZF5 (IKAROS family zinc finger 5),-0.21,inactive
IKZF5 (IKAROS family zinc finger 5),0.09,inactive
IKZF5 (IKAROS family zinc finger 5),0.03,inactive
IKZF5 (IKAROS family zinc finger 5),-0.22,inactive
TNC (tenascin C),-1.23,inactive
TNC (tenascin C),-0.87,inactive
TNC (tenascin C),-0.88,inactive
TNC (tenascin C),-1.05,inactive
CYFIP2 (cytoplasmic FMR1 interacting protein 2),-0.27,inactive
CYFIP2 (cytoplasmic FMR1 interacting protein 2),-0.6,inactive
CYFIP2 (cytoplasmic FMR1 interacting protein 2),-1.17,inactive
CYFIP2 (cytoplasmic FMR1 interacting protein 2),-0.84,inactive
PRKRA,-0.11,inactive
PRKRA,-0.51,inactive
PRKRA,0,inactive
PRKRA,-0.75,inactive
SACK1E (scaffolding CK1 anchoring protein E),-0.87,inactive
SACK1E (scaffolding CK1 anchoring protein E),-0.73,inactive
SACK1E (scaffolding CK1 anchoring protein E),-0.44,inactive
SACK1E (scaffolding CK1 anchoring protein E),0.03,inactive
CYP7A1 (cytochrome P450 family 7 subfamily A member 1),0.06,inactive
CYP7A1 (cytochrome P450 family 7 subfamily A member 1),0.67,inactive
CYP7A1 (cytochrome P450 family 7 subfamily A member 1),0,inactive
CYP7A1 (cytochrome P450 family 7 subfamily A member 1),0.52,inactive
CELA1 (chymotrypsin like elastase 1),0.73,inactive
CELA1 (chymotrypsin like elastase 1),-1.06,inactive
CELA1 (chymotrypsin like elastase 1),0.5,inactive
CELA1 (chymotrypsin like elastase 1),1.38,inactive
SAMD8 (sterile alpha motif domain containing 8),-1.19,inactive
SAMD8 (sterile alpha motif domain containing 8),1.51,inactive
SAMD8 (sterile alpha motif domain containing 8),-1.08,inactive
SAMD8 (sterile alpha motif domain containing 8),0.6,inactive
HPR (haptoglobin-related protein),-0.99,inactive
HPR (haptoglobin-related protein),-1.61,active
HPR (haptoglobin-related protein),-0.53,inactive
HPR (haptoglobin-related protein),-0.43,inactive
TMEM102 (transmembrane protein 102),-0.58,inactive
TMEM102 (transmembrane protein 102),-0.23,inactive
TMEM102 (transmembrane protein 102),0.05,inactive
TMEM102 (transmembrane protein 102),-0.97,inactive
SYT6 (synaptotagmin 6),0.17,inactive
SYT6 (synaptotagmin 6),1.06,inactive
SYT6 (synaptotagmin 6),0.12,inactive
SYT6 (synaptotagmin 6),0.56,inactive
"PCK2 (phosphoenolpyruvate carboxykinase 2, mitochondrial)",-0.39,inactive
"PCK2 (phosphoenolpyruvate carboxykinase 2, mitochondrial)",0.1,inactive
"PCK2 (phosphoenolpyruvate carboxykinase 2, mitochondrial)",-0.23,inactive
"PCK2 (phosphoenolpyruvate carboxykinase 2, mitochondrial)",1.35,inactive
ELOC (elongin C),-0.92,inactive
ELOC (elongin C),0.03,inactive
ELOC (elongin C),0.67,inactive
ELOC (elongin C),0,inactive
VRK1 (VRK serine/threonine kinase 1),1,inactive
VRK1 (VRK serine/threonine kinase 1),0.71,inactive
VRK1 (VRK serine/threonine kinase 1),1.37,inactive
VRK1 (VRK serine/threonine kinase 1),-1.23,inactive
GRIK4 (glutamate ionotropic receptor kainate type subunit 4),-0.12,inactive
GRIK4 (glutamate ionotropic receptor kainate type subunit 4),0.48,inactive
GRIK4 (glutamate ionotropic receptor kainate type subunit 4),0.99,inactive
GRIK4 (glutamate ionotropic receptor kainate type subunit 4),1.14,inactive
CABP2 (calcium binding protein 2),0.62,inactive
CABP2 (calcium binding protein 2),0.41,inactive
CABP2 (calcium binding protein 2),0.86,inactive
CABP2 (calcium binding protein 2),1,inactive
FAM219B (family with sequence similarity 219 member B),-0.85,inactive
FAM219B (family with sequence similarity 219 member B),-0.09,inactive
FAM219B (family with sequence similarity 219 member B),-1.16,inactive
FAM219B (family with sequence similarity 219 member B),0.75,inactive
LENG8 (leukocyte receptor cluster member 8),1.49,inactive
LENG8 (leukocyte receptor cluster member 8),0.3,inactive
LENG8 (leukocyte receptor cluster member 8),0.07,inactive
LENG8 (leukocyte receptor cluster member 8),0,inactive
ZBTB11 (zinc finger and BTB domain containing 11),-1.05,inactive
ZBTB11 (zinc finger and BTB domain containing 11),-0.7,inactive
ZBTB11 (zinc finger and BTB domain containing 11),-1.44,inactive
ZBTB11 (zinc finger and BTB domain containing 11),-0.48,inactive
CRYZ (crystallin zeta),-1.09,inactive
CRYZ (crystallin zeta),-0.39,inactive
CRYZ (crystallin zeta),-0.47,inactive
CRYZ (crystallin zeta),-1.06,inactive
RAD9A (RAD9 checkpoint clamp component A),1.19,inactive
RAD9A (RAD9 checkpoint clamp component A),1.51,inactive
RAD9A (RAD9 checkpoint clamp component A),0.87,inactive
RAD9A (RAD9 checkpoint clamp component A),1.24,inactive
PGM2L1 (phosphoglucomutase 2 like 1),-0.34,inactive
PGM2L1 (phosphoglucomutase 2 like 1),-0.11,inactive
PGM2L1 (phosphoglucomutase 2 like 1),0.1,inactive
PGM2L1 (phosphoglucomutase 2 like 1),-0.01,inactive
"TBC1D29P (TBC1 domain family member 29, pseudogene)",-1.41,inactive
"TBC1D29P (TBC1 domain family member 29, pseudogene)",-0.93,inactive
"TBC1D29P (TBC1 domain family member 29, pseudogene)",-1.03,inactive
"TBC1D29P (TBC1 domain family member 29, pseudogene)",-1.13,inactive
ABCB11 (ATP binding cassette subfamily B member 11),-0.51,inactive
ABCB11 (ATP binding cassette subfamily B member 11),-1.17,inactive
ABCB11 (ATP binding cassette subfamily B member 11),-0.97,inactive
ABCB11 (ATP binding cassette subfamily B member 11),1.75,inactive
CLCC1 (chloride channel CLIC like 1),-0.33,inactive
CLCC1 (chloride channel CLIC like 1),0.02,inactive
CLCC1 (chloride channel CLIC like 1),-0.47,inactive
CLCC1 (chloride channel CLIC like 1),0,inactive
TEX13B (testis expressed 13B),1.18,inactive
TEX13B (testis expressed 13B),4.35,active
TEX13B (testis expressed 13B),0.53,inactive
TEX13B (testis expressed 13B),0.48,inactive
